The nature of this assay: qHTS Assay for Lipid Storage Modulators in Drosophila S3 Cells.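 As to cell number change: cells counted by Cell Tracker Red CMTPX staining in the red channel.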 The following applies: BODIPY lipid droplet fluorescence, 18-24 h; for cell number change: measured here: cell count max response, cells fed with added oleic acid. In short, it runs like this: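 Drosophila S3 cells got compounds at several concentrations plus oleic acid (400 uM solution). Laser-scanning cytometry with 488 nm excitation read lipid droplets at 500-530 nm and cells at 575-640 nm. Percent activity was relative to 20 uM Triacsin C.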
(In qHTS, concentration-response curves come from the screen itself.)

[1] abbreviates: measured here: lipid fluorescence (Fed channel) AC50, cells fed with added oleic acid.
Setting [2] is: measured here: cell number channel AC50, cells fed with added oleic acid.

The source of these data is PubChem BioAssay AID2685 (National Center for Advancing Translational Sciences (NCATS), 2010).

The structures appear in SMILES notation. The list shows a part of the results. These are further read-outs of the screen, such as a control signal, another cell line or another target. No call is given for them. Most of these compounds were active or inconclusive in the main read-out, so they are no random draw. Potencies come from curve fits of mixed quality, noted in brackets.

Broadly, the AC50 is the concentration at which the activity in the assay is half-maximal. Low values mean greater potency, high ones weaker potency. For `CCOC(=O)N1CCN(CCC(=O)Nc2cccc(C)c2)CC1`, the cell number change was found to be 2.47%. Besides, under setting [1], the AC50 was 29.1 µM [rising, single point].
On to `CC(=O)Nc1ccc(S(=O)(=O)NC(CC(=O)N(C)Cc2ccccc2)C(C)C)cc1` (stereo unspecified), for which the cell number change is -24.7%. Under setting [1], the AC50 was 18.4 µM [falling, single point].
For the compound `Cc1cc(NC(=O)CCC(=O)N(c2ccccc2)C(C(=O)NC2CCCC2)c2ccccc2C)no1` (stereo unspecified), the cell number change came out at 2.63%.
As to `CCc1cc(=O)oc2c(C)c(O)c(CN(C)C)cc12`, the cell number change was found to be 1.06%. Further, the half-maximal activity concentration (AC50) under setting [1] is 0.517 µM [falling, full curve, poor fit].
Take `Cc1ccc2nc3c(cc(C(=O)NC4CCCCC4)c(=N)n3C3CCCCC3)c(=O)n2c1`: the cell number change was 1.8%. Moreover, the AC50 under setting [1] is 0.58 µM [falling, single point].
For the compound `Cc1ccc(C)c(S(=O)(=O)N2CCC(c3nc4c(nnn4Cc4ccc(F)cc4)c(=O)[nH]3)CC2)c1`, the cell number change is -26.2%. In addition, the AC50 under setting [1] is 29.1 µM [falling, single point].
As for `CN(C)S(=O)(=O)c1cccc2nsnc12`, the cell number change was -40.4%. Also, the AC50 under setting [2] was 0.731 µM [falling, full curve]. The AC50 under setting [1] is 0.82 µM [falling, full curve].
As to `CC(C)CCOP(=O)(c1ccc(N(C)C)cc1)C(O)c1ccc(C(C)C)cc1` (stereo unspecified), the cell number change was -52.6%. For the same compound, the concentration at half-maximal activity (AC50) under setting [2] is 18.4 µM [falling, partial curve]. Moreover, the AC50 under setting [1] was 10.3 µM [falling, partial curve].
Consider `O=C(NC1CCCC1)c1ccc(COc2ccccc2Br)o1`, for which the cell number change stood at 3.25%. Moreover, the AC50 under setting [1] is 6.51 µM [rising, single point].
On to `CC(C)CNC(=O)c1ccc(NC(=O)c2cccs2)cc1`, for which the cell number change is -47.3%. Moreover, the AC50 under setting [2] was 29.1 µM [falling, single point]. Also, under setting [1], the concentration at half-maximal activity (AC50) is 29.1 µM [falling, single point].
Take `CCOc1ccc(-n2c(-c3ccc(OC)cc3)c[n+]3c2CCCCC3)cc1`: the cell number change was -40.9%. Moreover, under setting [2], the AC50 is 3.26 µM [falling, partial curve]. Under setting [1], the AC50 was 1.46 µM [falling, full curve].
Regarding `Cc1cc(Br)ccc1NC(=O)CN(C)C(=O)CSCc1ccccc1`, under setting [1], the AC50 was 6.51 µM [falling, partial curve, poor fit].
In the case of `CCc1nnc(NS(=O)(=O)c2ccc(NS(=O)(=O)c3ccccc3)cc2)s1`, the cell number change was -4.83%.
On to `Cc1ccc(S(=O)(=O)N2CCCCC2)cc1NC(=O)CCc1nc2ccccc2c(=O)[nH]1`, for which the AC50 is, setting by setting: under setting [2], 0.731 µM [rising, single point]; under setting [1], 0.517 µM [rising, single point].
On to `Cc1ccccc1OCC(=O)N/N=C/c1ccc(N2CCOCC2)o1`, for which the cell number change was found to be 17%. For the same compound, under setting [1], the half-maximal activity concentration (AC50) was 29.1 µM [falling, single point].
Consider `COc1cccc(/C=N\NC(=O)c2sc(N)nc2C)c1OC`, for which the AC50 was 0.092 µM [rising, full curve] under setting [2] and 3.66 µM [rising, partial curve] under setting [1].
As to `O=C(NNC(=O)c1ccc(Oc2ccc(C3SCCS3)cc2)o1)c1ccc(Cl)cc1`, the AC50 under setting [1] is 0.731 µM [rising, single point].
Take `O=C(CN1CCCCCC1)OCCN=C1NS(=O)(=O)c2ccccc21`: the cell number change was -34.9%. Also, the AC50 under setting [2] was 23.1 µM [falling, single point].
Consider `CCOc1ccc(N=C2SCC(=O)N2CC)cc1`, for which the cell number change amounted to 26.3%. For the same compound, the half-maximal activity concentration (AC50) under setting [2] was 0.731 µM [rising, full curve, poor fit]. In addition, under setting [1], the AC50 is 29.1 µM [rising, single point].
Regarding `CCN(CC)CCCN=Cc1c(O)n(-c2cccc(C)c2)c(=O)c2ccccc12`, the cell number change came out at 11.9%.
Consider `Cc1cc(NC(=O)c2cccc3ccccc23)cc(C)c1OCC(=O)N1CCOCC1`, for which the cell number change was -3.99%. Also, the AC50 under setting [1] was 20.6 µM [rising, partial curve].
In the case of `COC(=O)c1ccc(OCCCCN2CC(C)OC(C)C2)cc1` (stereo unspecified), the cell number change was determined as 15.7%.
For `Cc1ccc2c(c1)C1OCCC1C1N2C(=O)C2C(C(=O)O)C3C=CC21O3` (stereo unspecified), the cell number change is -6.03%. Further, the AC50 under setting [1] was 5.8 µM [falling, full curve].
For the compound `NC(=O)c1cccnc1Nc1ccccc1F`, the cell number change is -6.61%. Also, the AC50 under setting [2] is 0.13 µM [rising, full curve, poor fit].
As for `COc1ccc(OC(C)C(=O)N2CCC(C)CC2)cc1` (stereo unspecified), the cell number change came to 2.61%. Further, the AC50 under setting [1] is 6.51 µM [falling, single point].
Turning to `O=C1C(c2ccccc2)=[N+]([O-])c2ccccc21`, the cell number change was -85.2%. Besides, under setting [2], the AC50 is 9.2 µM [falling, partial curve]. Under setting [1], the half-maximal activity concentration (AC50) is 4.11 µM [falling, full curve].
With `COc1cccc(C2=NOC(C(=O)NCc3ccc(F)cc3)C2)c1` (stereo unspecified), the cell number change was -91.6%. Further, the half-maximal activity concentration (AC50) under setting [2] was 0.116 µM [falling, partial curve]. The AC50 under setting [1] was 29.1 µM [falling, partial curve].
Regarding `O=C(CN1CCN(C(=O)c2c(F)cccc2F)CC1)Nc1ccccc1C(F)(F)F`, the cell number change was -20.7%.
Consider `Cc1ccc(S(=O)(=O)NCc2ccc(N3CCN(C(=O)OC(C)(C)C)CC3)cc2)cc1`, for which the cell number change amounted to 12.3%. Under setting [1], the AC50 was 35.5 µM [falling, single point].
In the case of `CCn1c(COc2cccc(C)c2)nnc1SCC(=O)NC1CCCC1`, the cell number change came to 10.5%. The concentration at half-maximal activity (AC50) under setting [1] was 0.206 µM [rising, single point].
On to `O=C1CC2CS(=O)(=O)CC2N1C1CCCCC1` (stereo unspecified), for which the cell number change was found to be 16.1%.
On to `CCCCN1CC(=O)N2[C@H]3c4ccc(OC)cc4OC[C@@H]3[C@H](c3ccccc3)[C@]2(C)C1=O`, for which the cell number change was 3.04%. For the same compound, under setting [1], the AC50 is 1.16 µM [falling, single point].
As for `O=C(c1cc(-c2cccc(O)c2)on1)N1CCc2ccccc2C1`, the cell number change is -12.4%. Further, under setting [1], the AC50 was 20.6 µM [falling, partial curve].
Consider `O=C(c1c(F)cccc1F)N1CCN(c2ncc(Br)cn2)CC1`, for which the cell number change was determined as 8.97%.
As to `Cc1ccc(-c2noc(-c3ccoc3C)n2)cc1`, the cell number change is -16%. Besides, the AC50 under setting [2] is 0.0731 µM [falling, full curve, poor fit]. The AC50 under setting [1] is 0.082 µM [falling, full curve, poor fit].
Consider `N#C/C(=C/c1ccccc1[N+](=O)[O-])C(=O)NCc1ccco1`, for which, under setting [1], the AC50 was 7.31 µM [falling, partial curve].
As for `CCS(=O)(=O)N1CCC(C(=O)NC2CCCCCCC2)CC1`, the cell number change turned out to be 2.1%. Moreover, under setting [2], the AC50 was 0.58 µM [falling, single point].
As for `CC(C)Nc1nc(Cl)nc(Nc2ccccc2)n1`, the cell number change is -13.7%.
Take `O=C(Nc1cccc(C(=O)N2CCOCC2)c1)c1cncc(Br)c1`: the cell number change is -36.1%. Further, the AC50 under setting [2] was 29.1 µM [falling, single point]. The AC50 under setting [1] was 2.31 µM [falling, single point].
Consider `Cn1c(NC(=O)c2ccccc2Br)cc(=O)n(C)c1=O`, for which the cell number change was -7.45%. In addition, under setting [2], the concentration at half-maximal activity (AC50) was 6.51 µM [falling, single point].
With `CC1CN(C(=O)/C(=C/c2ccco2)NC(=O)c2ccccc2)CC(C)O1` (stereo unspecified), the cell number change is -11.8%. Further, under setting [1], the AC50 was 7.08 µM [rising, partial curve, poor fit].
On to `CCOc1ccc(S(=O)(=O)NCc2ccncc2)cc1`, for which the cell number change is -34.4%. Also, the AC50 under setting [2] was 1.84 µM [falling, partial curve].
With `Cc1csc(NC(=O)C2C3C=CC(O3)C2C(=O)O)n1` (stereo unspecified), the cell number change is -17.9%. The AC50 under setting [1] is 0.366 µM [falling, full curve, poor fit].
With `CC(=O)Nc1cccc(NC(=O)c2ccco2)c1`, the cell number change was found to be 8.83%.
For `O=C(NCc1ccccc1F)C1CCCN(c2cnccn2)C1` (stereo unspecified), the cell number change worked out at 12.5%. The AC50 under setting [1] was 16.4 µM [rising, partial curve].
On to `COc1cccc(NC(=O)CN(c2ccc([N+](=O)[O-])cc2)S(=O)(=O)c2ccccc2)c1`, for which the cell number change was 8.07%. Also, under setting [1], the AC50 was 18.4 µM [rising, single point].
With `CCOC(=O)c1c(C)[nH]c(C(=O)Cn2nnc(-c3ccccc3)n2)c1C`, the cell number change is -33.7%. Further, under setting [2], the AC50 is 29.1 µM [falling, single point].
For `NC(=O)COC(=O)C1CSC2(c3ccc(F)cc3)CCC(=O)N12` (stereo unspecified), the cell number change is -2.17%.
Turning to `CC(C)(C)C(=O)NNC(=O)c1cc(C(C)(C)C)nn1Cc1ccccc1`, the cell number change was -28.7%. For the same compound, the half-maximal activity concentration (AC50) under setting [2] is 3.66 µM [falling, full curve, poor fit]. The AC50 under setting [1] is 29.1 µM [falling, single point].
On to `Cc1ccccc1-c1ccc(C(=O)NCc2ccccc2)o1`, for which the cell number change worked out at 2.49%. Besides, the AC50 under setting [1] was 8.2 µM [rising, partial curve].
Turning to `Cc1ccc(Nc2nc(Oc3ccc(OCc4ccccc4)nn3)nc(N3CCOCC3)n2)cc1`, the cell number change amounted to 10.9%. Moreover, under setting [1], the AC50 was 4.61 µM [rising, full curve].
Consider `COCC(C)n1c(C)cc(C(=O)COC(=O)CCc2nc3ccccc3c(=O)[nH]2)c1C` (stereo unspecified), for which the cell number change stood at 64.5%. Besides, under setting [2], the AC50 was 1.3 µM [rising, full curve, poor fit].
On to `Cc1cc(C)nc(NC(=NCCc2c[nH]c3ccccc23)NC(=O)c2ccco2)n1`, for which the cell number change was -29%. Moreover, the AC50 under setting [2] is 0.0731 µM [rising, single point]. In addition, the AC50 under setting [1] was 0.164 µM [rising, full curve].
Consider `Cc1ccc(NC(=O)COC(=O)CCn2c(C)csc2=O)c([N+](=O)[O-])c1`, for which the cell number change was found to be 3.61%.
In the case of `CCc1ccc(-c2nnn(Cc3nn[nH]n3)n2)cc1`, the cell number change is -5.28%. Under setting [1], the AC50 was 7.31 µM [falling, single point].
`CC(C(=O)N1CCc2ccccc21)n1cccc1` (stereo unspecified): the cell number change worked out at 6.92%. The AC50 under setting [1] is 20.6 µM [falling, partial curve].
For `CCC(COC)Oc1cc(NCc2ccccc2)c2ncn(C(C)C)c2c1` (stereo unspecified), the cell number change was -74.2%. For the same compound, the AC50 under setting [2] was 4.61 µM [falling, single point].
Turning to `N#Cc1cccc(C(=O)OCc2cccc(S(=O)(=O)N3CCOCC3)c2)c1`, the cell number change is -20.1%.
In the case of `O=C(c1ccc(Br)o1)N1CCN(Cc2ccccc2Cl)CC1`, the cell number change is -19.1%. Besides, the AC50 under setting [1] is 0.411 µM [falling, full curve, poor fit].
Turning to `CCCN(CCC)C(=O)Cn1ccc(=N)c2ccccc21`, the cell number change was -28.5%. Under setting [2], the AC50 is 0.00517 µM [falling, full curve]. Moreover, under setting [1], the AC50 was 0.116 µM [falling, full curve].
For the compound `CCn1nnc(-c2ccccc2NC(=O)c2cc(OC)c(OC)c(OC)c2)n1`, the cell number change was 10.8%.
Consider `Cc1ccc(N2C(=O)N(Cc3ccccc3C)c3ccccc3S2(=O)=O)cc1`, for which the cell number change turned out to be 39.8%. In addition, the AC50 under setting [2] was 1.16 µM [rising, full curve]. Also, the AC50 under setting [1] is 2.06 µM [rising, partial curve].
